{"source": "PubChem BioAssay AID1508600", "about": "(Functional Genomics Laboratory (NCATS/FGL), 2020)", "note": "About 3,700 (7%) of roughly 53,000 sequences were called active.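 Rule for the calls: active = gene knockdowns whose robust z-score for IL-1 alpha signal is at least 2 or at most -2, so actives lie on both sides; inactive = the rest.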 The list shows a part of the results.", "data": [{"assay": "Components of the Cytosolic LPS Sensing Pathway: Gene Identification via Genome-wide siRNA Screen;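 note: robust z of the log signal after scaling to non-targeting control siRNA wells of the plate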", "conditions": "RAW264.7 macrophages, IL-1a HTRF, actives lie on both sides, screened at 100 nM (by protocol), cells primed 5 h with Pam3CSK4 first", "in_short": "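Supernatant IL-1a by HTRF from RAW264.7 cells primed with Pam3CSK4 (5 hours) and transfected with LipidA (24 hour) after 48h siRNA knockdown at 100 nM; cell viability checked with CellTiter-Glo.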", "values": [{"sequence": "GCUGAAUUUAGAGAGCACATT against Fam167b", "z-score": "inactive: 0.763"}, {"sequence": "GGAUCUUCGUGUCCAUUUATT against Ppfia2", "z-score": "inactive: -0.177"}, {"sequence": "GGUUUUUGGGAAUUGGCUUTT against Sfxn5", "z-score": "inactive: -0.0222"}, {"sequence": "AUUCAACCUGUCAAUUGUCTT against H2ac8", "z-score": "inactive: 0.266"}, {"sequence": "GGACAUGAAAGAUGCAAUUTT against Olfr421-ps1", "z-score": "inactive: -1.29"}, {"sequence": "GGGCAUGACAUUCGAGACATT against Asic1", "z-score": "inactive: -1.64"}, {"sequence": "GUUACCUCUGUGUUGUACUTT against Olfr60", "z-score": "inactive: -0.148"}, {"sequence": "GGAGGAGAGCAUUCCCAUUTT against Ddx6", "z-score": "inactive: -0.89"}, {"sequence": "GGCCCAAGAGAUUGAUCAATT against Ivd", "z-score": "inactive: -0.565"}, {"sequence": "CCUUGUCGCACAAAGAAUATT against Tm9sf1", "z-score": "inactive: -0.335"}, {"sequence": "GGAGUUUGACCACUACGUATT against P2ry4", "z-score": "inactive: -0.0534"}, {"sequence": "GCUCGUUCUUCGACAUCUUTT against Stard3", "z-score": "inactive: -0.946"}, {"sequence": "CCCUACUUUGUACAUAGAUTT against Gbx2", "z-score": "inactive: 1.91"}, {"sequence": "GGAAAACAAUUUCAGGCAATT against Zdhhc3", "z-score": "inactive: -1.07"}, {"sequence": "GGAAACAUGUCCUCACACATT against Top3b", "z-score": "inactive: 1.41"}, {"sequence": "GGGUCCUGGUUUUACAUUCTT against Itpr1", "z-score": "inactive: 1.59"}, {"sequence": "CCUCCGGAGUAUAAACAAUTT against Nr1i3", "z-score": "inactive: 0.21"}, {"sequence": "GGUGGAGAGAAAGAGAAAATT against Mcm8", "z-score": "inactive: 0.767"}, {"sequence": "GGACUUCUUCACCAUCUGGTT against Lcat", "z-score": "inactive: -1.3"}, {"sequence": "GGAUCUACUUAUGAGCUAGTT against Rnf220", "z-score": "inactive: 0.896"}, {"sequence": "GGAGAUGUGAAGAUUCAGUTT against Vsig4", "z-score": "inactive: 0.0265"}, {"sequence": "GGCGGAAGCCAUGAAGAAATT against Kcnmb4", "z-score": "inactive: 0.11"}, {"sequence": "GGAACAAAGACAUGUAUCATT against Zgpat", "z-score": "inactive: -0.931"}, {"sequence": "GCUCUUUCUAUAAAAGGCCTT against Map3k9", "z-score": "inactive: 0.887"}, {"sequence": "GGCACAAUUAGCUAAGAAUTT against Abi3bp", "z-score": "inactive: -1.87"}, {"sequence": "GGUAAAAUACUACCUGAGATT against Abca15", "z-score": "inactive: -0.0103"}, {"sequence": "GGAGUUCACAUUCUUUCUGTT against Cbx7", "z-score": "inactive: -1.15"}, {"sequence": "GGCUGCACAAAGAUGUUCATT against Yy1", "z-score": "active: 2.46"}, {"sequence": "GGAUGGUUACAUCAACUGCTT against Cabp1", "z-score": "inactive: 0.68"}, {"sequence": "CCUACUCCACGGGUAUUUUTT against 1700065D16Rik", "z-score": "inactive: -0.331"}, {"sequence": "GCAACGACUCAACCAAUUCTT against Tbkbp1", "z-score": "inactive: 0.926"}, {"sequence": "GCAUACGAGGAAACUACAUTT against Chm", "z-score": "inactive: 1.48"}, {"sequence": "GGCAUACAAACACAAAAUUTT against Tmem218", "z-score": "inactive: -1.69"}, {"sequence": "GGAUUCAUCGGGUCAGGAGTT against Mier1", "z-score": "inactive: -1.43"}, {"sequence": "GGACAUCGUGCUCUAUCUCTT against Nrarp", "z-score": "inactive: -1.07"}, {"sequence": "CGUACAUGCUCCUUCUAUCTT against 2900005J15Rik", "z-score": "inactive: -0.646"}, {"sequence": "GCGAUUUGUCUAGUCCAAATT against Zfp622", "z-score": "inactive: -1.08"}, {"sequence": "GGAAGUUUUGGGAGUGUGUTT against Map3k20", "z-score": "inactive: -1.08"}, {"sequence": "GGUUGACAUGGUUCAGUCATT against Tcf23", "z-score": "inactive: -0.499"}, {"sequence": "GGCUAAAACACUUAUCAAUTT against Poteg", "z-score": "active: -2.32"}, {"sequence": "GCAUUUCACUUUGAGAAAUTT against Ahrr", "z-score": "inactive: -0.438"}, {"sequence": "CCUCAAAACAGUGUGGACATT against 9630041A04Rik", "z-score": "inactive: -0.334"}, {"sequence": "CCAGGUGUUUGAUGCAUUCTT against Foxr2", "z-score": "inactive: 1.11"}, {"sequence": "GGGCAGUAAAGCUUUCUUGTT against Actl9", "z-score": "inactive: 1.05"}, {"sequence": "CCAAAGUUCCCUUAGCCAUTT against Cntrob", "z-score": "inactive: 0.12"}, {"sequence": "GGUGACAUUACAUUUCAUATT against Pgam5", "z-score": "inactive: 0.486"}, {"sequence": "CGUUCAGUGUCUGCAGGUUTT against Mrps12", "z-score": "inactive: -0.0575"}, {"sequence": "GGGUAUGAUGUGAUUGCUCTT against Eif4a2", "z-score": "inactive: 0.0435"}, {"sequence": "GCCACUUACUUUUCUGAAATT against Commd7", "z-score": "inactive: 1.18"}, {"sequence": "GGACAUGAGGACUGUAUCATT against Clec4g", "z-score": "active: -3.2"}, {"sequence": "GGAAUUUGCCUAUAUGAAGTT against Riok2", "z-score": "inactive: -0.867"}, {"sequence": "AAGGUCGUUUACAUGAACATT against Fbxw20", "z-score": "inactive: 1.19"}, {"sequence": "GGAGGAUUGUCCACAUGGATT against Ccl27a", "z-score": "active: 4.32"}, {"sequence": "CGGGACCUAUGUGAUCAUGTT against Casp1", "z-score": "inactive: -0.287"}]}]}
